This note sets out measurements from paper PMC4919782.

The exact form of at least one protein or probe is not confirmed. Where cells or extracts were used, other partners may take part. For part of these data: A negative result means that nothing was seen under these conditions. Tags and fusion partners may be left off the protein sequences shown.

The target in data set [1] is T1, C/EBPβ (pig (Yorkshire piglet)) (UniProt E5Q8C6).
T1 sequence (looked up, limits assumed): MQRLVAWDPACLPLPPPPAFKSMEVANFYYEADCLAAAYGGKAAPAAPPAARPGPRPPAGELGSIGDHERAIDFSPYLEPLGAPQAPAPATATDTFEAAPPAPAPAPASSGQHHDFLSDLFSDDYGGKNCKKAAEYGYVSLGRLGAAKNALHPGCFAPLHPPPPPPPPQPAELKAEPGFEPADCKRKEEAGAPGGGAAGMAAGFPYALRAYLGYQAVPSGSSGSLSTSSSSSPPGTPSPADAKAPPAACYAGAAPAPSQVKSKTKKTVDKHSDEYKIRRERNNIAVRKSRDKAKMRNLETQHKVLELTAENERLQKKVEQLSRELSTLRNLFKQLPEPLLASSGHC
Kind of data set: EMSA. To be noted: no shift bands, Binding buffer 20 mM Tris-Cl pH 7.6, 50 mM KCl, 0.5 mM EDTA, 10% glycerol, 1 mM DTT (2 µl in 10 µl reaction), antibody preincubation 1 h at 4 °C, protein in an extract, label: biotin-dUTP. In general terms: In EMSA bound probe runs differently from free probe, usually more slowly.

The target of data set [2] is T1, C/EBPβ (pig (Yorkshire piglet)). As to the kind of experiment: EMSA supershift. To be noted: C/EBPβ antibody, lane 5; Binding buffer 20 mM Tris-Cl pH 7.6, 50 mM KCl, 0.5 mM EDTA, 10% glycerol, 1 mM DTT (2 µl in 10 µl reaction); antibody preincubation 1 h at 4 °C; protein in an extract; label: biotin-dUTP.

On to “AACCCACAACCTCATGGTTC (double strand) [BPI wt probe, methylated]”, for which the binding result in data set [1] (lanes 1-3, treated with CpG methyltransferase M.SssI, methylated positions not stated (printed probe contains no CpG; paper attributes effect to non-CpG mC-15)) is given as “no binding”.
As for “AACCCACAACCTCATGGTTC (double strand) [BPI wt probe, unmethylated]”, the binding result in data set [2] is “binds”.
For the sequence “AACCGACTAGTCTATGGTTC (double strand) [BPI mut probe]”, the binding result in data set [1] (lanes 7-10, M.SssI treatment state per lane not stated) is on record as “no binding”.
